This is one part of the list. Most values lie at the level of the controls, where differences are scatter.
compound: Cc1nc(Nc2ncc(C(=O)Nc3c(C)cccc3Cl)s2)cc(N2CCN(CCO)CC2)n1 [dasatinib]; experiment: log2 fold change of tryptic peptide abundance, ligand vs vehicle (limited proteolysis) (log2 ratio); higher = more trypsin-susceptible (destabilized); conditions: ligand concentration: 5 uM; sample: K562 cleared lysate

Sequences of proteins named here, by UniProt entry; tags and fusion partners are left off. A change or cut given only in a name is not applied to a line headed by its entry.
UniProt P00390: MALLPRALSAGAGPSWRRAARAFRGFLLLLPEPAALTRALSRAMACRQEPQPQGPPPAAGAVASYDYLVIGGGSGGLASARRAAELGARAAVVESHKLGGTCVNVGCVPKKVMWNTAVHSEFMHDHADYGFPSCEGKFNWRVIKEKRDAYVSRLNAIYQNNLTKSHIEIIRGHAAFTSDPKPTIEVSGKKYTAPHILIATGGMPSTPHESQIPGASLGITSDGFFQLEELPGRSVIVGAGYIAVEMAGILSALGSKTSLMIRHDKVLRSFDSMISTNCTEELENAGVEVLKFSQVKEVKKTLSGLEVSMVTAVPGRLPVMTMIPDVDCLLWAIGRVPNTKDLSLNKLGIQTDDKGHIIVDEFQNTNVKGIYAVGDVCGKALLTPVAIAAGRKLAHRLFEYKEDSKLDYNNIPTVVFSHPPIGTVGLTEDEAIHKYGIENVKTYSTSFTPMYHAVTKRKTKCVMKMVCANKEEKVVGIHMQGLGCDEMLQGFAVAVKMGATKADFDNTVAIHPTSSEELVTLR
UniProt O75531: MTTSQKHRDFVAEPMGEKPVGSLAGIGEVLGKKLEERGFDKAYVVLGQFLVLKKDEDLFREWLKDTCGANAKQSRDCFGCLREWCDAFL
UniProt O75586: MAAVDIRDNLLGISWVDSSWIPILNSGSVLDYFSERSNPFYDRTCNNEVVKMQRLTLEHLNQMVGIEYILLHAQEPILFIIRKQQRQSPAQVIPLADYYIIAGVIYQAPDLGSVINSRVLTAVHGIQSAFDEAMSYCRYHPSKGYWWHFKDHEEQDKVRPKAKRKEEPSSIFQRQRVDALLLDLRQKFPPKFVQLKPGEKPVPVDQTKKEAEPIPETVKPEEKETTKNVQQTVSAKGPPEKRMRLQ
UniProt O95639, whole entry: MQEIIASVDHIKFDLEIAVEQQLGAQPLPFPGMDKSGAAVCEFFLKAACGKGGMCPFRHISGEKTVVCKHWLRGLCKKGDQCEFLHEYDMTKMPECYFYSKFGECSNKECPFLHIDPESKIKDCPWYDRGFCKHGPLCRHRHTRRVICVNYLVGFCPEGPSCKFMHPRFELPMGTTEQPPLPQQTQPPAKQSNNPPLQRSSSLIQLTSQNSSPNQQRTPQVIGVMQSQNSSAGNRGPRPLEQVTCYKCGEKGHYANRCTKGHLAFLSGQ
UniProt O75437: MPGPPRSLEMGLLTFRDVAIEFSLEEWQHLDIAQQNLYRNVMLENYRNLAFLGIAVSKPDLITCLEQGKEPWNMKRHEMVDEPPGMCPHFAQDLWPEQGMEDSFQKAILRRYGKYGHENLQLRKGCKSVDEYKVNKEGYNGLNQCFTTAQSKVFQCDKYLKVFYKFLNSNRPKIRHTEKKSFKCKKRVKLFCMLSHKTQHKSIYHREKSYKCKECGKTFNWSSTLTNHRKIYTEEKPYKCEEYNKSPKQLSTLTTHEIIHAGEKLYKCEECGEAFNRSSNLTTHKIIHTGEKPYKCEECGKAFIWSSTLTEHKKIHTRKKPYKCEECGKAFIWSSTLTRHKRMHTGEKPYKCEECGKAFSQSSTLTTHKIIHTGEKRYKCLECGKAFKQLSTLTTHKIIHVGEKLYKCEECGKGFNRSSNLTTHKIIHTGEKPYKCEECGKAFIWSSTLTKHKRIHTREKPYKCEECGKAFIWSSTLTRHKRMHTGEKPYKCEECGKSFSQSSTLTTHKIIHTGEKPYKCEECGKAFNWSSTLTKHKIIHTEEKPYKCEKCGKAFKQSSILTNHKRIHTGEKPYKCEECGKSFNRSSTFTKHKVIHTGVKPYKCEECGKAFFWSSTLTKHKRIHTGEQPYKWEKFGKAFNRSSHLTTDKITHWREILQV
UniProt O94972: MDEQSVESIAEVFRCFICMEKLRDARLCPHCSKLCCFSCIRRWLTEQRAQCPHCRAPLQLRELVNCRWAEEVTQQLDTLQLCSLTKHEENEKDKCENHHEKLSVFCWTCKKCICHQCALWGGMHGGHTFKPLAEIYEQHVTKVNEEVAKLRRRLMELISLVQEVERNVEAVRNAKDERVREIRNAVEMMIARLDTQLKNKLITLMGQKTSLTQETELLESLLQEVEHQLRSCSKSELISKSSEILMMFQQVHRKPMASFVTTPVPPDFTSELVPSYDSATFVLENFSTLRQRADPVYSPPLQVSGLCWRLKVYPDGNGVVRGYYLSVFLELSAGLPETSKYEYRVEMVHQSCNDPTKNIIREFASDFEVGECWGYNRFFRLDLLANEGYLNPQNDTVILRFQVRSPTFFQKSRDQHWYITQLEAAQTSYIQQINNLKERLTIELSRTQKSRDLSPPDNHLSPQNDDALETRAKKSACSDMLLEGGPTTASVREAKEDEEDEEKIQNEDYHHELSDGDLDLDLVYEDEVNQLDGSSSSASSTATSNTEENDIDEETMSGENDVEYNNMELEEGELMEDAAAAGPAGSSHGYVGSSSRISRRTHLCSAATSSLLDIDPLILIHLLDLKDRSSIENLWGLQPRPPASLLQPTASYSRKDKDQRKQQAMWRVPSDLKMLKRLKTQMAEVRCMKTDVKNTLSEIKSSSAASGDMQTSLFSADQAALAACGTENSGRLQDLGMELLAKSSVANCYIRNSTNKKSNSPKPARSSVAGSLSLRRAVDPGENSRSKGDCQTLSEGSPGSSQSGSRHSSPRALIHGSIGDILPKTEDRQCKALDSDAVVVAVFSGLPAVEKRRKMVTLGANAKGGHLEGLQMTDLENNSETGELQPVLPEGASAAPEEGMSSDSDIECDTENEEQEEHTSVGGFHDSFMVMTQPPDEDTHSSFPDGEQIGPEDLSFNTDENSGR
UniProt O75691: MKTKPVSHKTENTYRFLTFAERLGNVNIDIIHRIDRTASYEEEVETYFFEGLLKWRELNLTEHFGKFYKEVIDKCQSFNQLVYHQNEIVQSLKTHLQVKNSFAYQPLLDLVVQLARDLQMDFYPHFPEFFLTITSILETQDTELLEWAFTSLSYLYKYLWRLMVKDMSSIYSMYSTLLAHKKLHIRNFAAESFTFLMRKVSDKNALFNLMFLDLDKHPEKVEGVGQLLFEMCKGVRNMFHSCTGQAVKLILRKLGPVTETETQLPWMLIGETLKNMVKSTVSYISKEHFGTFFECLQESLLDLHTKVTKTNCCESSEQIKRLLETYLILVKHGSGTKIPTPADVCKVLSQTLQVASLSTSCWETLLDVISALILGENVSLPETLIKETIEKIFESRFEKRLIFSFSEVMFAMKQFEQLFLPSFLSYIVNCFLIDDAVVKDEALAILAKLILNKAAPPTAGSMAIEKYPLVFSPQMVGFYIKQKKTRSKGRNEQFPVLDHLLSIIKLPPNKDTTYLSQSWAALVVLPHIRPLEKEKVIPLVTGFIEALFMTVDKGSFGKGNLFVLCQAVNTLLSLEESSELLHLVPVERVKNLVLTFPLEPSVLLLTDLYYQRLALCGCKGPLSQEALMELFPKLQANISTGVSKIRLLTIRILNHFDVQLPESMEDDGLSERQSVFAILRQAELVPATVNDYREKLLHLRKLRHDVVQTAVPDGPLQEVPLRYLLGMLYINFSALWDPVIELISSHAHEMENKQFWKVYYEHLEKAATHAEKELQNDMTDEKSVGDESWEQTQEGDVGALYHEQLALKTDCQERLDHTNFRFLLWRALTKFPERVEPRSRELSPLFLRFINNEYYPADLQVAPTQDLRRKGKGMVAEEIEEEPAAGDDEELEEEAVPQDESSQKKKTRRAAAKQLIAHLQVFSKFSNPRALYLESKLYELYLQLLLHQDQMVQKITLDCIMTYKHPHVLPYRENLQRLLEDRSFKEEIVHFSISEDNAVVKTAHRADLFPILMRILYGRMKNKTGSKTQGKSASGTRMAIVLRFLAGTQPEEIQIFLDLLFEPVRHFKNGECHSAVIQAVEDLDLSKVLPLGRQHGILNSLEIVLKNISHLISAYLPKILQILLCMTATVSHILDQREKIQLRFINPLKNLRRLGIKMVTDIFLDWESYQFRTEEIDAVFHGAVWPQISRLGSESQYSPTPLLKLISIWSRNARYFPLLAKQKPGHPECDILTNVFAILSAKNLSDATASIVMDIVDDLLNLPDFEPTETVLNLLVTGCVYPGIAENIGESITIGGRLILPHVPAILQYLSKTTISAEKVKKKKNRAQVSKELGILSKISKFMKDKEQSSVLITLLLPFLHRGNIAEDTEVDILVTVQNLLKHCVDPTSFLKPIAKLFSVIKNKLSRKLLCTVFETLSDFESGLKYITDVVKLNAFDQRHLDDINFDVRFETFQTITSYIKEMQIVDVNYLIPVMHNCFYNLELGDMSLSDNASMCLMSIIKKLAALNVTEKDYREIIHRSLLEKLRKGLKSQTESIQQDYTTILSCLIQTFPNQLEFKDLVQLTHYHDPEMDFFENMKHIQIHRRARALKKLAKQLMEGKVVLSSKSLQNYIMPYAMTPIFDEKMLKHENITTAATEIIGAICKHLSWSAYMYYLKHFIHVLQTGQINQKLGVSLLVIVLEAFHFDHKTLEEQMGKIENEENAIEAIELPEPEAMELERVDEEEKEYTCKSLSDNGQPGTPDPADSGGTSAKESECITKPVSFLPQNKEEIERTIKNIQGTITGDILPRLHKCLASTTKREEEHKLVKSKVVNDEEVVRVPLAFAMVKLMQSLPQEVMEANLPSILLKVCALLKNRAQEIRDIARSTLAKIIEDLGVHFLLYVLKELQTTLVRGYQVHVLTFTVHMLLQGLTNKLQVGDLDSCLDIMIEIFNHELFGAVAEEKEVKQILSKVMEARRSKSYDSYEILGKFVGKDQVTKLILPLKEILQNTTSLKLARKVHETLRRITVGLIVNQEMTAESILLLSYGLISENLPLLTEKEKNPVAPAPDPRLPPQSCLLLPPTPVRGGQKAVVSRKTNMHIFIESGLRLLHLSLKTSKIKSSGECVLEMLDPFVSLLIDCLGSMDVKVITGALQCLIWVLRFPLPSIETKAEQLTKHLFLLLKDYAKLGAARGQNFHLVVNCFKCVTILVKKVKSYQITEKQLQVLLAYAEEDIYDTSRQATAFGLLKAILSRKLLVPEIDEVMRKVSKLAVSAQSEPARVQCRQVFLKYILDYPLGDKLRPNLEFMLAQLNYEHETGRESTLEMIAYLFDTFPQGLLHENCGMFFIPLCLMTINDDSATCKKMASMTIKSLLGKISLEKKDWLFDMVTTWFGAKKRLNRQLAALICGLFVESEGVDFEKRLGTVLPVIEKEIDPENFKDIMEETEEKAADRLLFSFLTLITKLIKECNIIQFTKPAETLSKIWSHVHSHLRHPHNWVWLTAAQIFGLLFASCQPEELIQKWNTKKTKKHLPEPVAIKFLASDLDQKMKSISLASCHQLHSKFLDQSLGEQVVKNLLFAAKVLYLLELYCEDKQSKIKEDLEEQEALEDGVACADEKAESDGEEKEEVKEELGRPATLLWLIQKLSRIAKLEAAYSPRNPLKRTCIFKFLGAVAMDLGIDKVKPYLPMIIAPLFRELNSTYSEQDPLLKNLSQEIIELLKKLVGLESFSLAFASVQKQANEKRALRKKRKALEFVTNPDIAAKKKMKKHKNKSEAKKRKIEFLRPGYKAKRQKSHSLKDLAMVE
UniProt O75431: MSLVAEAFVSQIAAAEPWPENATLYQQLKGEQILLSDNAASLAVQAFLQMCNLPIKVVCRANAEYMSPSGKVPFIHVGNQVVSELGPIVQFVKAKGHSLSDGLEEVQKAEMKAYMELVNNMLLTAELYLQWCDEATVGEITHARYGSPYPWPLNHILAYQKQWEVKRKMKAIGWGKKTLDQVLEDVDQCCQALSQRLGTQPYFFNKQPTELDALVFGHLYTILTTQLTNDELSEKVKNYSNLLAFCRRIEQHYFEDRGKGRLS
UniProt O75506: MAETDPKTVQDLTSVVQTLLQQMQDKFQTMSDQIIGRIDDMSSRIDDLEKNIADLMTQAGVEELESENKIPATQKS
UniProt O95544: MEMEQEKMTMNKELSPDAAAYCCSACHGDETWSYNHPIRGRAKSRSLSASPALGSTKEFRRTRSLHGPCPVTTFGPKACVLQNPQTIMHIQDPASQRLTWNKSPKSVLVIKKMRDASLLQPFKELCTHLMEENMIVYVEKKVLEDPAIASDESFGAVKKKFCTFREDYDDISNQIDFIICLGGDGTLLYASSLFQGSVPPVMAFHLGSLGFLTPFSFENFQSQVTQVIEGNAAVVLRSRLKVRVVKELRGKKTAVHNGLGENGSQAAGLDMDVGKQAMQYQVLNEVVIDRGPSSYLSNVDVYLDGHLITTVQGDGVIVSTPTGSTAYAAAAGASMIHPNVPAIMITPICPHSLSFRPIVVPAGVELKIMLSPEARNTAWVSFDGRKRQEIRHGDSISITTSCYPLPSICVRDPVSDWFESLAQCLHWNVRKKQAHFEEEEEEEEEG
UniProt O95999: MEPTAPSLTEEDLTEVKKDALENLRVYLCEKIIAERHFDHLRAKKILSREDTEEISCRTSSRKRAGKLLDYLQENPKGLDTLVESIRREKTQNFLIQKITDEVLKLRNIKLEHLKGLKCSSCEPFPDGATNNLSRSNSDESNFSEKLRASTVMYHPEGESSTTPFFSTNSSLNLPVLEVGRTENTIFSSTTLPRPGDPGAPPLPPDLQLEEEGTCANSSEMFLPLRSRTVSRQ

Target | log2 fold change
EML2 (peptide sequence: LKLEWVYGYR, peptide start residue: 55) (UniProt O95834) | 0.793
RNF8 (peptide sequence: SLNGVWLNR, peptide start residue: 81) (UniProt O76064) | 0.543
KLHL18 (peptide sequence: VQQDDLVR, peptide start residue: 241) (UniProt O94889) | 0.106
MED24 (peptide sequence: AEPTVTNILK, peptide start residue: 413) (UniProt O75448) | -0.0486
SURF6 (peptide sequence: MKWTNLLYK, peptide start residue: 268) (UniProt O75683) | -0.194
MED26 (peptide sequence: LTFDPMTR, peptide start residue: 425) (UniProt O95402) | 0.362
GSR (peptide sequence: GHAAFTSDPKPTIEVSGK, peptide start residue: 172) (UniProt P00390) | 0.303
AHSA1 (peptide sequence: WGEGDPRWIVEER, peptide start residue: 4) (UniProt O95433) | -0.269
FARS2 (peptide sequence: LFWCEDER, peptide start residue: 331) (UniProt O95363) | 0.386
EIF3G (peptide sequence: DTLGPMQK, peptide start residue: 173) (UniProt O75821) | 0.368
UniProt O75820 (peptide sequence: SSGLIQHQR, peptide start residue: 412) | -0.7
UBOX5 (peptide sequence: AQTALAVIPSSIVLPSQKR, peptide start residue: 346) (UniProt O94941) | 0.405
UniProt O95382 (peptide sequence: NHVEELLR, peptide start residue: 1034) | 0.22
BANF1 (peptide sequence: EWLKDTCGANAK, peptide start residue: 61) (UniProt O75531) | 0.153
MED6 (peptide sequence: KEAEPIPETVKPEEK, peptide start residue: 209) (UniProt O75586) | 0.194
CPSF4 (peptide sequence: SGAAVCEFFLK, peptide start residue: 36) (UniProt O95639) | -0.218
UniProt O75437 (peptide sequence: TFNWSSTLTNHR, peptide start residue: 218) | 0.125
RECQL5 (peptide sequence: PSAKPSVVAEVK, peptide start residue: 873) (UniProt O94762) | 0.647
C6orf47 (peptide sequence: WDHVDSGGTR, peptide start residue: 117) (UniProt O95873) | -0.0459

Random excerpt: 2 records from the list, in no set order.
Target | log2 fold change
C6orf47 (peptide sequence: WDHVDSGGTR, peptide start residue: 117) (UniProt O95873) | -0.0459
MED24 (peptide sequence: AEPTVTNILK, peptide start residue: 413) (UniProt O75448) | -0.0486

Continued.

Target | log2 fold change
UBE4B (peptide sequence: HLLNSPTDPFNR, peptide start residue: 1261) (UniProt O95155) | 0.184
TADA2A (peptide sequence: EVQDLYETMR, peptide start residue: 246) (UniProt O75478) | 0.557
TNFAIP8 (peptide sequence: EYTQNKK, peptide start residue: 60) (UniProt O95379) | -0.287
AP2A1 (peptide sequence: FINLFPETK, peptide start residue: 548) (UniProt O95782) | -0.206
UniProt O94763 (peptide sequence: NSTGSGHSAQELPTIR, peptide start residue: 371) | -0.28
LYPLA1 (peptide sequence: TLVNPANVTFK, peptide start residue: 191) (UniProt O75608) | -0.119
ALDH1A2 (peptide sequence: IEMPGEVK, peptide start residue: 6) (UniProt O94788) | 0.0686
IDH1 (peptide sequence: CATITPDEK, peptide start residue: 73) (UniProt O75874) | 0.171
TRIM37 (peptide sequence: KMVTLGANAK, peptide start residue: 854) (UniProt O94972) | 0.375
PIAS1 (peptide sequence: QLSSTVLLQR, peptide start residue: 287) (UniProt O75925) | -0.522
UTP20 (peptide sequence: FLASDLDQK, peptide start residue: 2520) (UniProt O75691) | 0.254
SEC24D (peptide sequence: AVLHQPLK, peptide start residue: 796) (UniProt O94855) | 0.891
MTX2 (peptide sequence: RIEQHYFEDR, peptide start residue: 248) (UniProt O75431) | -0.332
HSBP1 (peptide sequence: FQTMSDQIIGR, peptide start residue: 27) (UniProt O75506) | -0.00888
NADK (peptide sequence: SLHGPCPVTTFGPK, peptide start residue: 64) (UniProt O95544) | 0.075
UniProt O95049 (peptide sequence: AVGVGPGSSAGSNAR, peptide start residue: 557) | -0.422
POP4 (peptide sequence: SVIYHALSQKEANDSDVQPSGAQR, peptide start residue: 3) (UniProt O95707) | 0.173
WDR47 (peptide sequence: RPQSADAYMTR, peptide start residue: 301) (UniProt O94967) | -0.194
BCL10 (peptide sequence: KDALENLR, peptide start residue: 18) (UniProt O95999) | 0.207
